# Measurements published in US20120141373A1 (University of California, published 2012).
# No constants are given. Whether binding was seen depends on the method and setting. Some results given as binding are weak or reduced against the parent protein; the word gives no strength.
# B1: E2 Fab (Fab, V domains shown)
# VH: QVQLVQSGGGLVKPGGSLRLSCAASGFTFSSYAMSWVRQAPGKGLEWVSAISGSGGSTYYADSVKGRFTISRDNSKNTLYLQMSSLRAEDTAVYYCARPYLTYPQRRGPQNVSPFDNWGQGTMVTVSS
# VL: DIQMTQSPSSLSASVGDRVTITCRASQGISSYLAWYQQKPGKAPKLLIYAASSLQSGVPSRFSGSGSGTDFTLTISSLQPEDFAVYYCQQHGNLPYTFGDGTKVEIKR
# notes: also called anti-MT-SP1 Fab antibody E2
# Target: T1, human MT-SP1 protease domain (human, UniProt Q9Y5Y6 615-855)
# T1 construct: domain: protease domain; also called hMT-SP1; matriptase
# T1 sequence (looked up): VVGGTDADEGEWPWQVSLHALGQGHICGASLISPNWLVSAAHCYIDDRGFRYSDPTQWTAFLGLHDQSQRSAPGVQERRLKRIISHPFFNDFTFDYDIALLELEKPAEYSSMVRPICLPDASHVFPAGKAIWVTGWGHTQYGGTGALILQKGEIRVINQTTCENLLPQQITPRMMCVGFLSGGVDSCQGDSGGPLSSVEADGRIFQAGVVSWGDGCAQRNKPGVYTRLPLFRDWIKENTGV
# Test: structure of the complex (figure legend)
binder,measurement,value
B1,binding,binds
